Results are given in words; binding and its absence hold for the method and conditions named. Binding seen in cells or lysates may run through a third protein. Some results given as binding are weak or reduced against the parent protein; the word gives no strength.
Experiments:
[1] = biological target: V5-tagged RRN3 (stably expressed in SK-OV-3 cells) (human) (UniProt Q9NYV6); experiment: co-IP; anti-V5 immunoprecipitation from SK-OV-3 cells overexpressing V5-tagged RRN3; western blot for PABPC1
[2] = biological target: PABPC1 (endogenous, SK-OV-3 cells) (human (endogenous in SK-OV-3)) (UniProt P11940); experiment: co-IP; SK-OV-3 cells treated with Rapamycin (500 nM, 24 h) or DMSO control; immunoprecipitation with anti-PABPC1 antibody
[3] = biological target: Flag-tagged PABPC1 (HEK 293T) (UniProt P11940); experiment: co-IP; HEK 293T transiently transfected with V5-tagged RRN3 (WT or S199D) together with Flag-tagged PABPC1; immunoprecipitation with anti-Flag antibody

The chains behind the UniProt entries cited, without tags or fusion partners. Where a name states a change or a piece, a line headed by the entry shows the natural chain unless it says otherwise.
UniProt Q9NYV6: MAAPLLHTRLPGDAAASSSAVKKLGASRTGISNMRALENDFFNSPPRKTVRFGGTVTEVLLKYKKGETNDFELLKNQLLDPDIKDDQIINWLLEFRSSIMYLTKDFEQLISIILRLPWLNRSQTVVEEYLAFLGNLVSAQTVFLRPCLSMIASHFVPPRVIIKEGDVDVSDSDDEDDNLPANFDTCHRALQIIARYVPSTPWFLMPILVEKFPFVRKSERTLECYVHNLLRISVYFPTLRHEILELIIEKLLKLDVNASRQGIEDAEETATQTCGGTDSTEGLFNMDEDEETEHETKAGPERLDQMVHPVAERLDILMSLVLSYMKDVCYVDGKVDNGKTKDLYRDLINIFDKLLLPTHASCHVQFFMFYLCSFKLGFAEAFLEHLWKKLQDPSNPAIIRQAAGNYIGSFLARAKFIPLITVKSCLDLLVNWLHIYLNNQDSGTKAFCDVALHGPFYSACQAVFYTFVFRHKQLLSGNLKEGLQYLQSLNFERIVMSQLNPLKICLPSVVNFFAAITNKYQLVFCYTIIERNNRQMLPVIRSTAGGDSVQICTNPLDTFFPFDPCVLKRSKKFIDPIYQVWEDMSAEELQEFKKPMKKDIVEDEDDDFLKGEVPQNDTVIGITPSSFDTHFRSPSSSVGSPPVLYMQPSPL
UniProt P11940: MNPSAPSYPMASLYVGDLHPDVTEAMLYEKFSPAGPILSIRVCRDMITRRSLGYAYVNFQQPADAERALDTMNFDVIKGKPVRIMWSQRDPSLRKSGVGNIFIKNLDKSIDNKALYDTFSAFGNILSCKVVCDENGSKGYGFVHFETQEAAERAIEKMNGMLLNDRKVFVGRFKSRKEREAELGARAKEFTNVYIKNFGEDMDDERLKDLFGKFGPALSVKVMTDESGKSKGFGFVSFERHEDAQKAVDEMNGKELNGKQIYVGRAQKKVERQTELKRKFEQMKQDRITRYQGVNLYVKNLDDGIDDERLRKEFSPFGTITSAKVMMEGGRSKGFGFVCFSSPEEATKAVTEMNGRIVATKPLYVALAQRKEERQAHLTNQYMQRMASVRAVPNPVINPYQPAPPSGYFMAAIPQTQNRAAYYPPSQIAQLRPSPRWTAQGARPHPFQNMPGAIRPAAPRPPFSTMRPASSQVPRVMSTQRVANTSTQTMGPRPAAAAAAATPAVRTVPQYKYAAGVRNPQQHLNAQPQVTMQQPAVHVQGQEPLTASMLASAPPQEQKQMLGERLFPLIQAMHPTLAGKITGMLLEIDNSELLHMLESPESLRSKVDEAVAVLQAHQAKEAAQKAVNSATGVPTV

binding [3] | Substance | also measured
– | PABPC1 (endogenous, SK-OV-3 cells) (from UniProt P11940 1-636) | binding [1]: binds
– | RRN3 (endogenous, SK-OV-3 cells) (from UniProt Q9NYV6 1-651) | binding [2]: binds
binds | V5-tagged S199D-mutated RRN3 (HEK 293T) (from UniProt Q9NYV6 1-651) | –
binds | V5-tagged wild type (WT) RRN3 (HEK 293T) (from UniProt Q9NYV6 1-651) | –

From paper PMC12638823
